Screening data, single-dose tests

The values are deposited in ChEMBL (CHEMBL3988442, “University of Dundee, Small-Polar-MMV Screening Library” (2021)).

Each number is a percent effect as filed. The controls that fix the scale are not given in the record; negative values are as filed. Compounds were drawn at random from those tested, without regard to their results.

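Whole-parasite assay of Trypanosoma brucei over 72 hours; the read-out is not stated. Compounds at 30 µM. The record gives no direction; compounds that gave an IC50 in retests scored well above the rest, so higher reads as stronger inhibition. Values scatter widely below zero; nearly all retest evidence comes from the higher of the two concentrations used. Of about 64,000 compounds tested this way, about 940 (1.5%) reached 50% or more in at least one test.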

SMILES	Percent Effect
Cc1noc(C(C)C)c1C(=O)NCCCOC(C)C	3.524%
Cc1nc(C)c(C(=O)Nc2cnn(CC(=O)NC3CCCC3)c2)s1	-4.997%
O=C(O)C(F)(F)F.[H][C@@]12CN(C(=O)c3ccccc3C)C[C@]1([H])OCCN2c1ncccn1	-15.75%
O=C(CN1CC(c2nc(C3CC3)no2)C1)NCc1ccc(F)cc1.O=C(O)C(=O)O	-2.66%
Cc1cn[nH]c1C1COCCN1Cc1c[nH]cn1 (configuration not stated)	1.467%
CN1CCOC[C@H]1c1nc(-c2cccc(F)c2)c[nH]1	-31.1%
COc1ccc(CNCCc2ccn(-c3ccccc3)n2)cc1O	-29.81%
COCCN(Cc1cccnc1)c1nc(C)nc2oc(C)nc12	10.17%
CCNC(=O)N(C)Cc1ccc(SC)c(OC)c1	15%
CC(C)C[C@H](N)COc1cccc(F)c1Oc1cccc(Cl)c1	99.87%
Cc1noc(-c2cccnc2N(C)Cc2cscn2)n1	-16.63%
COCCN1CC(Nc2nc(C3CCCC3)nc3c2cnn3C)CC1=O (configuration not stated)	-13.34%
Cc1ccc(C)n1-c1c(C(=O)NCC(c2ccsc2)N(C)C)cnn1C (configuration not stated)	-0.8157%
[H][C@]12CC[C@@]3(N=C(CC)N(CC)C3=O)[C@@]1([H])CN(C(=O)Nc1ccccc1)C2	-27.71%
C[C@@H]1CN(C2(C(=O)N3CCNCC3)Cc3ccccc3C2)C[C@H](C)O1	-43.16%
CCc1nnc(CN(C)c2nc(C(C)C)nc3c2cnn3C)o1	-12.24%
N#Cc1cccnc1Oc1cc(F)c(CN2CCCC2)c(Cl)c1	-24.07%
O=C(O)C(F)(F)F.O=C(O)C(F)(F)F.[H][C@@]12CCCO[C@]1([H])[C@H](N(C)C(C)C)CN(Cc1cc(C)on1)C2	-32.35%
CC(CNC(=O)N1CCN(CC(F)F)CC1)Cc1cccs1 (configuration not stated)	-9.039%
CCn1cc(S(=O)(=O)Nc2ccc3[nH]c(C4CCC4)nc3c2)cn1	-12.68%
CCn1cc(N2Cc3nc(N(C)C)ncc3C2=O)cn1	-9.04%
Cc1cc(C)n(CCC(=O)N2CCC(c3nc(C)no3)CC2)n1	-4.921%
CC(C)C[C@H](NC(=O)c1cc(-c2cccn2C)n[nH]1)C(N)=O	-33.98%
O=C(O)c1cc(S(=O)(=O)Nc2cc(Cl)ccc2F)cc2c1OCCO2	8.663%
Cc1cc(C(=O)NCCC(=O)N2CCCc3ccccc32)no1	4.796%
O=C(O)C(F)(F)F.O=C1CCCN1Cc1ncn2c1CN(Cc1cccs1)CCC2	-12.53%
O=C(NCc1cccnc1N1CCCCC1)c1ccc2c(c1)OCO2	-33.36%
CN(C)C(=O)c1n[nH]c2c1CCN(Cc1nccs1)C2	-210.3%
CN(CCC(=O)N1CCc2sccc2C1)Cc1cnn(C)c1	-5.288%
CC(C)CC(NC(=O)c1ccc[nH]1)C(=O)N1CCC(CO)CC1 (configuration not stated)	-7.758%
O=C(O)C(F)(F)F.O=C(O)C(F)(F)F.[H][C@@]12COC[C@]1(COc1cccnc1)CN(Cc1cccc(OC)c1)C2	13.61%
CN1CCc2cc(C(CNS(=O)(=O)c3cccs3)N3CCCC3)ccc21 (configuration not stated)	-2.654%
CC(C)c1cc(C(=O)N2CCN(Cc3ccc(C#N)cc3)CC2)n[nH]1	6.242%
CCc1cc(NCc2cccnc2N2CCCCC2)n2ncnc2n1	-69.02%
Cc1cccc2[nH]c(COCC(=O)N3CCCn4cncc4C3)nc12	-0.4613%
O=C(Nc1cnn(CC(=O)N2CCCCO2)c1)c1ccsc1	102%
COC(=O)C1CCN(C(=O)c2nnc3ccc(C)cc3n2)CC1	-1.319%
Cc1nocc1C(=O)N1CCOC2(COCCN(C(C)C)C2)C1.O=C(O)C(F)(F)F (configuration not stated)	-78.31%
CC(C)n1cnnc1C1CCCN(C(=O)COCc2ccccc2)C1 (configuration not stated)	-21.74%
CCCc1noc(CCC(=O)N2CCCC(n3ccnc3C)C2)n1 (configuration not stated)	-19.57%
COCCN1CCC2(CC1)CC(c1cccnc1)CO2.O=C(O)C(F)(F)F (configuration not stated)	-48.93%
COc1cccc(C(C(=O)O)N2CCCN(C3CCCC3)CC2)c1OC (configuration not stated)	-38.65%
O=C(O)C(F)(F)F.O=C(O)C(F)(F)F.[H][C@]12CCN(c3ncc(F)cn3)[C@@]1([H])CC[C@@H](COCc1ccccn1)O2	-7.512%
CN(Cc1csc(-c2cccs2)n1)C(=O)CCn1ccc(=O)[nH]c1=O	-21.87%
Cc1ccc(S(=O)(=O)N2CCN(CCCO)CC2)s1	-23.48%
O=C(O)C(F)(F)F.c1cnc(N2CCC3(CC2)CN(CC2CC2)c2ccccc23)nc1	99.63%
CN(Cc1nnc2n1CCC2)C(=O)c1ccc2c(c1)OCO2	-19.84%
N#Cc1c(-c2ccccc2)csc1N	-33.12%
COCCN(CCOC)C(=O)c1cn(C(C)(C)C)c2ncccc12	-5.412%
COCCC(=O)N1CCC(c2cc3ncc(C)nc3[nH]2)CC1	-6.872%
CCCS(=O)(=O)N1CCC2(CC(C(=O)NCc3cccnc3)=NO2)C1 (configuration not stated)	0.2488%
COc1ccc(N2CCCC3(C2)CN(c2ncccn2)CCO3)cc1 (configuration not stated)	31.87%
CCCc1cc(C(=O)N(C)Cc2cnc3ccccc3n2)n(C)n1	21.24%
Cc1ccccc1C(CC(=O)NCC(N)=O)c1ccccc1 (configuration not stated)	-20.69%
Cc1ccc(C)c2c(O)cc(CNCC(=O)N3CCCC3)nc12	-42.86%
O=C(O)C(F)(F)F.O=S(=O)(NC1CCC12CCN(CC1CCOCC1)CC2)c1ccccc1 (configuration not stated)	-53.38%
Cc1cc(Cc2ccccc2C)cc(C2CCCNC2)n1 (configuration not stated)	49.51%
[H][C@@]12C[C@@H](c3nnc(C4CC4)o3)O[C@]1([H])CN(C(=O)c1ccsc1)C2	-5.733%
Cc1cncc(C(=O)N2CCCC(O)(CN(C)C)CC2)c1 (configuration not stated)	-13.22%
Cc1nccn1-c1ccc(C(C)NCc2cc[nH]n2)cc1 (configuration not stated)	-6.955%
CN1CCCN(CCCNC2CCc3cc4c(cc32)OCCO4)CC1 (configuration not stated)	-27.67%
Cc1ccc2c(n1)N(CCN(C)C)CCN(C(=O)c1cccs1)C2.O=C(O)C(F)(F)F.O=C(O)C(F)(F)F	-27.23%
O[C@H]1CN(Cc2cc3ccccc3o2)CC[C@@]12CCCO2	-48.33%
Cc1nn(CCN2CCSCC2)cc1CNCc1ccccn1	-65.29%
Cc1cc(C)c(C(=O)N[C@H](C(N)=O)c2ccccc2)c(=O)[nH]1	-75.18%
O=C(NCCOc1ccc(Cl)cn1)Nc1ccccn1	-24.41%
O=C(O)C(F)(F)F.O=C(O)C(F)(F)F.[H][C@@]12CCN(Cc3ccsc3)C[C@]1([H])[C@@H](CNc1ncccn1)OC2	-15.63%
CCC(C(=O)NC1CCN(S(C)(=O)=O)CC1)n1cccn1 (configuration not stated)	-36.89%
OC(COCc1ccco1)CN1CCC(Cn2cccn2)CC1 (configuration not stated)	-22.56%
O=C(NCCNC(=O)c1scnc1Cl)c1ccccc1	-13.44%
O=C(NCC(F)(F)F)c1coc(COc2cccc(F)c2)n1	-200.6%
[H][C@]12CC[C@]([H])(CN(C)C1)N(C(=O)c1cc(OC)ccc1OC)C2	28.36%
CN1CCC2(CC1)CC(NC(=O)c1csnn1)c1ccccc1O2.O=C(O)C(F)(F)F (configuration not stated)	-31.72%
CC(=O)N1CCCC2(CCN(C(=O)c3nccnc3N)CC2)C1	-10.39%
COCC(=O)NCc1cc(=O)n2c(n1)CN(Cc1ccncc1)CCC2	-94.66%
O=C(Cc1ccccn1)N1CCC2(CC1)[C@H](O)C[C@@H]2O	-12.8%
CN1CCN(C2CCN(C(C(N)=O)c3ccccc3)CC2)C1=O (configuration not stated)	-50.8%
O=C(O)C(F)(F)F.O=S(=O)(c1cccs1)N1CC[C@@H](O)[C@@H]1Cc1ccncc1	-9.857%
O=S(=O)(C1CC1)N1CCC(Cn2cccn2)CC1	-11.82%
Cc1ccc(C(=O)Nc2ccc(N3CCC(O)CC3)c(C#N)c2)s1	38.83%
Cc1c(C(=O)NCC(C)C)nnn1-c1cccc2c1CCN(CCO)C2	11.73%
CC1=Nc2c(c(=O)[nH]n2C(C)C)C(c2ccc3c(c2)OCCO3)S1 (configuration not stated)	-20.37%
CNCC(=O)N[C@H]1CN(c2nc(C)c3c(n2)CCCC3)C[C@@H]1C1CC1	18.38%
Cc1c(C(=O)NCCC2CN(C)CCO2)n(C)c2c(C)cccc12 (configuration not stated)	-14.06%
Cc1ncc(CN2CCOCC2)c2cc(C(=O)c3ccc(Br)cc3)oc12.Cl	-8.586%
COc1cccc(CNC[C@@]2(COc3cccnc3)C[C@@H](O)[C@@H](O)C2)c1.Cl.Cl	-5.846%
O=C(Cc1n[nH]c2ccccc12)N1CCC(Nc2cccnn2)CC1	3.605%
COc1ccc2[nH]nc(CN3CCC(C(C)N(C)C)CC3)c2c1 (configuration not stated)	30.82%
Cc1[nH]ccc1C(=O)N(C)C1CC(=O)N(Cc2ccccc2)C1=O (configuration not stated)	-6.673%
Cn1cc(CN(Cc2ccccc2)CC(O)c2cccs2)cn1 (configuration not stated)	-31.81%
CCC(C(=O)N(C)C)N1CCC(c2nccn2Cc2cscn2)CC1 (configuration not stated)	-10.66%
O=C1CCOC[C@]2(CN(Cc3ccccc3)C[C@H]2c2ccccc2)N1	-0.772%
CC(CN1CCOCC1)NC(=O)NCc1cccs1 (configuration not stated)	-36.71%

For reference, 10 entries once more:

SMILES	Percent Effect
O=C(O)C(F)(F)F.O=C(O)C(F)(F)F.[H][C@]12CCN(c3ncc(F)cn3)[C@@]1([H])CC[C@@H](COCc1ccccn1)O2	-7.512%
CN1CCN(C2CCN(C(C(N)=O)c3ccccc3)CC2)C1=O (configuration not stated)	-50.8%
Cc1ccc(S(=O)(=O)N2CCN(CCCO)CC2)s1	-23.48%
COCCN1CC(Nc2nc(C3CCCC3)nc3c2cnn3C)CC1=O (configuration not stated)	-13.34%
O=C(O)C(F)(F)F.c1cnc(N2CCC3(CC2)CN(CC2CC2)c2ccccc23)nc1	99.63%
Cc1cn[nH]c1C1COCCN1Cc1c[nH]cn1 (configuration not stated)	1.467%
CC(C)CC(NC(=O)c1ccc[nH]1)C(=O)N1CCC(CO)CC1 (configuration not stated)	-7.758%
COC(=O)C1CCN(C(=O)c2nnc3ccc(C)cc3n2)CC1	-1.319%
Cc1nocc1C(=O)N1CCOC2(COCCN(C(C)C)C2)C1.O=C(O)C(F)(F)F (configuration not stated)	-78.31%
N#Cc1cccnc1Oc1cc(F)c(CN2CCCC2)c(Cl)c1	-24.07%